PubChem BioAssay AID504764 | Drosophila RNAi Screening Center | 2011
In all, the deposit lists about 22,000 reagents; this is a random part of those with a known target gene and a result. Of all reagents, 403 (1.9%) were called active. 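Unnormalised raw counts per well; ratio z-scores behind the hit calls and whether each hit raises or lowers signal are not deposited.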 Not stated in the record: the amount of reagent.

Purpose: 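Genome-wide screen for regulators of Notch-driven gene expression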 (primary screen)
Cell system: Drosophila Kc167 cells
Knock-down reagent: long dsRNA against Drosophila genes
Timing: about 5 days (4 days dsRNA, then 24 h after transfection)
Treatment: transfection of constitutively active membrane-tethered Notch lacking the extracellular domain, read 24 h later
Read-out: 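Light from a Notch-responsive E(spl)m3 luciferase reporter under active Notch, with control-promoter and no-Notch reporter wells to normalise; raw counts from paired wells a and b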
Direction: induced reporter light, run 1, well a and induced reporter light, run 1, well b: higher = more light from the Notch target reporter with active Notch; control promoter light, run 1, well a and control promoter light, run 1, well b: higher = more light from the viral control promoter (cell number, transfection, viability); uninduced reporter light, run 1, well a: higher = more light from the Notch target reporter without active Notch
Rule for the call: 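Hit if the duplicate-averaged log2 ratio of induced to control-promoter light gives a plate-wise z beyond ±2, or induced to uninduced beyond ±1.8; weak-control or discordant-duplicate wells dropped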
Meaning of the calls: active = modifier hit (raised or lowered Notch signal); inactive = not a hit

scrt (scratch) [DRSC08736] | induced reporter light, run 1, well a = 10365; induced reporter light, run 1, well b = 8680; control promoter light, run 1, well a = 15388; control promoter light, run 1, well b = 20475; uninduced reporter light, run 1, well a = 2805; outcome = inactive
bigmax [DRSC15481] | induced reporter light, run 1, well a = 1.80e5; induced reporter light, run 1, well b = 2.30e5; control promoter light, run 1, well a = 3.21e5; control promoter light, run 1, well b = 3.36e5; uninduced reporter light, run 1, well a = 15260; outcome = inactive
CG4757 [DRSC14130] | induced reporter light, run 1, well a = 85945; induced reporter light, run 1, well b = 1.13e5; control promoter light, run 1, well a = 1.35e5; control promoter light, run 1, well b = 81740; uninduced reporter light, run 1, well a = 33345; outcome = inactive
Cyp6t2Psi (pseudo) [DRSC01840] | induced reporter light, run 1, well a = 81815; induced reporter light, run 1, well b = 1.04e5; control promoter light, run 1, well a = 86840; control promoter light, run 1, well b = 95045; uninduced reporter light, run 1, well a = 9682; outcome = inactive
oc (ocelliless) [DRSC18808] | induced reporter light, run 1, well a = 1.17e5; induced reporter light, run 1, well b = 1.34e5; control promoter light, run 1, well a = 2.18e5; control promoter light, run 1, well b = 2.13e5; uninduced reporter light, run 1, well a = 11800; outcome = inactive
CG1909 [DRSC17150] | induced reporter light, run 1, well a = 2.56e5; induced reporter light, run 1, well b = 1.98e5; control promoter light, run 1, well a = 3.20e5; control promoter light, run 1, well b = 3.82e5; uninduced reporter light, run 1, well a = 17155; outcome = inactive
Ilp5 (Insulin-like peptide 5) [DRSC08998] | induced reporter light, run 1, well a = 1.97e5; induced reporter light, run 1, well b = 1.58e5; control promoter light, run 1, well a = 1.99e5; control promoter light, run 1, well b = 1.95e5; uninduced reporter light, run 1, well a = 11865; outcome = inactive
Dcr-1 (Dicer-1) [DRSC15646] | induced reporter light, run 1, well a = 2.04e5; induced reporter light, run 1, well b = 1.85e5; control promoter light, run 1, well a = 2.22e5; control promoter light, run 1, well b = 2.44e5; uninduced reporter light, run 1, well a = 15260; outcome = inactive
lin (lines) [DRSC07644] | induced reporter light, run 1, well a = 1.81e5; induced reporter light, run 1, well b = 2.36e5; control promoter light, run 1, well a = 2.45e5; control promoter light, run 1, well b = 2.50e5; uninduced reporter light, run 1, well a = 17882; outcome = inactive
CG14006 [DRSC02338] | induced reporter light, run 1, well a = 1.45e5; induced reporter light, run 1, well b = 1.42e5; control promoter light, run 1, well a = 2.08e5; control promoter light, run 1, well b = 1.50e5; uninduced reporter light, run 1, well a = 11950; outcome = active
Bet3 (Blocked early in transport 3) [DRSC10388] | induced reporter light, run 1, well a = 1.38e5; induced reporter light, run 1, well b = 1.48e5; control promoter light, run 1, well a = 2.25e5; control promoter light, run 1, well b = 2.00e5; uninduced reporter light, run 1, well a = 4385; outcome = inactive
CG5532 [DRSC04509] | induced reporter light, run 1, well a = 2.46e5; induced reporter light, run 1, well b = 1.88e5; control promoter light, run 1, well a = 3.54e5; control promoter light, run 1, well b = 3.51e5; uninduced reporter light, run 1, well a = 15555; outcome = inactive
Pgls (6-phosphogluconolactonase) [DRSC19769] | induced reporter light, run 1, well a = 1.31e5; induced reporter light, run 1, well b = 1.16e5; control promoter light, run 1, well a = 2.67e5; control promoter light, run 1, well b = 1.69e5; uninduced reporter light, run 1, well a = 8505; outcome = inactive
veg (retired record) [DRSC07714] | induced reporter light, run 1, well a = 79100; induced reporter light, run 1, well b = 77665; control promoter light, run 1, well a = 98185; control promoter light, run 1, well b = 1.07e5; uninduced reporter light, run 1, well a = 8250; outcome = inactive
Srp54 (Splicing regulatory protein 54) [DRSC03442] | induced reporter light, run 1, well a = 24188; induced reporter light, run 1, well b = 25895; control promoter light, run 1, well a = 51090; control promoter light, run 1, well b = 40630; uninduced reporter light, run 1, well a = 1465; outcome = inactive
CG42449 [DRSC18084] | induced reporter light, run 1, well a = 1.13e5; induced reporter light, run 1, well b = 1.39e5; control promoter light, run 1, well a = 2.44e5; control promoter light, run 1, well b = 2.69e5; uninduced reporter light, run 1, well a = 9205; outcome = inactive
Toll-7 [DRSC07563] | induced reporter light, run 1, well a = 21750; induced reporter light, run 1, well b = 23245; control promoter light, run 1, well a = 28475; control promoter light, run 1, well b = 23590; uninduced reporter light, run 1, well a = 4485; outcome = inactive
Nthl1 (Nth-like DNA glycosylase 1) [DRSC03183] | induced reporter light, run 1, well a = 67120; induced reporter light, run 1, well b = 34225; control promoter light, run 1, well a = 57195; control promoter light, run 1, well b = 40030; uninduced reporter light, run 1, well a = 2028; outcome = inactive
